Test results as given in PMC11494501 (ACS Chemical Biology, 2024).
*: point of attachment. FITC = O=C1OC2(c3ccc(O)cc3Oc3cc(O)ccc32)c2ccc(NC(=S)*)cc21; βAla = NCCC(=O)O

Test: peptide synthesis
Settings: whole synthesis, analytical RP-HPLC (Shimadzu, UV 214 nm and 280 nm, Phenomenex Aeris peptide XB-C18)

**Q.** For Ac-GEDEEELIRKAIELSLKESG-NH2, which “final HPLC purity” value is on record?
**A.** The value was 95.68%.

**Q.** With Ac-βA-GEDEEEAIRKAIELSLKESG-NH2 as the substance, how does the “final HPLC purity” value read?
**A.** Its value is 98.43%.

**Q.** Which “final HPLC purity” value does the source give for Ac-βA-GEDEEEEIRKAIELSLKESG-NH2 here?
**A.** Its value is 95.04%.

**Q.** Which “final HPLC purity” value does the source give for Ac-βA-GEDEEELARKAIELSLKESG-NH2 here?
**A.** Its value is 89.50%.

**Q.** Which “final HPLC purity” value does the source give for Ac-βA-GEDEEELFRKAIELSLKESG-NH2 here?
**A.** Its value is 100%.

**Q.** For Ac-βA-GEDEEELIRKAAELSLKESG-NH2, which “final HPLC purity” value is on record?
**A.** The value was 96.38%.

**Q.** With Ac-βA-GEDEEELIRKAIEASLKESG-NH2 as the substance, how does the “final HPLC purity” value read?
**A.** Its value is 96.79%.

**Q.** With Ac-βA-GEDEEELIRKAIEESLKESG-NH2 as the substance, how does the “final HPLC purity” value read?
**A.** The value was 100%.

**Q.** Which “final HPLC purity” value does the source give for Ac-βA-GEDEEELIRKAIELSAKESG-NH2 here?
**A.** Its value is 93.72%.

**Q.** Which “final HPLC purity” value does the source give for Ac-βA-GEDEEELIRKAIELSEKESG-NH2 here?
**A.** The value was 92.23%.

**Q.** With Ac-βA-GEDEEELIRKALELSLKESG-NH2 as the substance, how does the “final HPLC purity” value read?
**A.** Its value is 100%.

**Q.** For FITC-βA-GEDEEELARKAIELSLKESG-NH2, which “final HPLC purity” value is on record?
**A.** Its value is 93.89%.

**Q.** Which “final HPLC purity” value does the source give for FITC-βA-GEDEEELFRKAIELSLKESG-NH2 here?
**A.** Its value is 100%.

**Q.** With FITC-βA-GEDEEELIRKAIEASLKESG-NH2 as the substance, how does the “final HPLC purity” value read?
**A.** Its value is 96.33%.

**Q.** With FITC-βA-GEDEEELIRKAIELSAKESG-NH2 as the substance, how does the “final HPLC purity” value read?
**A.** The value was 91.94%.

**Q.** With FITC-βA-GEDEEELIRKALELSLKESG-NH2 as the substance, how does the “final HPLC purity” value read?
**A.** Its value is 97.02%.

**Q.** For {FITC-βAla}-GEDEEEEIRKAIELSLKESG-NH2, which “final HPLC purity” value is on record?
**A.** Its value is 100%.

**Q.** Which “final HPLC purity” value does the source give for “{FITC-βAla}-GEDEEELIRKAAELSLKESG-NH2 (SMILES CC[C@H](C)[C@H](NC(=O)[C@H](CC(C)C)NC(=O)[C@H](CCC(=O)O)NC(=O)[C@H](CCC(=O)O)NC(=O)[C@H](CCC(=O)O)NC(=O)[C@H](CC(=O)O)NC(=O)[C@H](CCC(=O)O)NC(=O)CNC(=O)CCNC(=S)Nc1ccc2c(c1)C(=O)OC21c2ccc(O)cc2Oc2cc(O)ccc21)C(=O)N[C@@H](CCCNC(=N)N)C(=O)N[C@@H](CCCCN)C(=O)N[C@@H](C)C(=O)N[C@@H](C)C(=O)N[C@@H](CCC(=O)O)C(=O)N[C@@H](CC(C)C)C(=O)N[C@@H](CO)C(=O)N[C@@H](CC(C)C)C(=O)N[C@@H](CCCCN)C(=O)N[C@@H](CCC(=O)O)C(=O)N[C@@H](CO)C(=O)NCC(N)=O)” here?
**A.** Its value is 93.67%.

**Q.** With “{FITC-βAla}-GEDEEELIRKAIEESLKESG-NH2 (SMILES CC[C@H](C)[C@H](NC(=O)[C@H](C)NC(=O)[C@H](CCCCN)NC(=O)[C@H](CCCNC(=N)N)NC(=O)[C@@H](NC(=O)[C@H](CC(C)C)NC(=O)[C@H](CCC(=O)O)NC(=O)[C@H](CCC(=O)O)NC(=O)[C@H](CCC(=O)O)NC(=O)[C@H](CC(=O)O)NC(=O)[C@H](CCC(=O)O)NC(=O)CNC(=O)CCNC(=S)Nc1ccc2c(c1)C(=O)OC21c2ccc(O)cc2Oc2cc(O)ccc21)[C@@H](C)CC)C(=O)N[C@@H](CCC(=O)O)C(=O)N[C@@H](CCC(=O)O)C(=O)N[C@@H](CO)C(=O)N[C@@H](CC(C)C)C(=O)N[C@@H](CCCCN)C(=O)N[C@@H](CCC(=O)O)C(=O)N[C@@H](CO)C(=O)NCC(N)=O)” as the substance, how does the “final HPLC purity” value read?
**A.** The value was 90.59%.

**Q.** For {FITC-βAla}-GEDEEELIRKAIELSEKESG-NH2, which “final HPLC purity” value is on record?
**A.** The value was 96.25%.

**Q.** For {FITC-βAla}-GEDEEELIRKAIELSLKESG-NH2, which “final HPLC purity” value is on record?
**A.** The value was 100%.

Same assay, conditions: whole synthesis, analytical RP-HPLC (Shimadzu, UV 214 nm and 280 nm, Phenomenex Aeris peptide XB-C18), scale 0.025 mmol

**Q.** With Ac-GEDEEELIRKAIELSLKESGK(FITC)-NH2 as the substance, how does the “final HPLC purity” value read?
**A.** Its value is 93.99%.
